Reference: article PMC6967409 (Frontiers in Chemistry, 2020)
Read-outs that look alike come from different tables or passages of the source.

Tests used:
[1] = test system: P. falciparum PL08-009 (5C); experiment: T0 [3H]-hypoxanthine drug susceptibility assay, artemisinin-resistant clone (C580Y); format: cell-based, Plasmodium falciparum
[2] = test system: Chinese hamster ovarian (CHO) cells; details: selectivity index; ref Coertzen et al. (2018); cited from earlier work
[3] = test system: P. falciparum Dd2; design: method as in Coertzen et al. (2018); details: resistance index; ref Coertzen et al. (2018); cited from earlier work
[4] = test system: P. falciparum ARC08-22 (4G); experiment: T0 [3H]-hypoxanthine drug susceptibility assay, artemisinin-resistant clone (C580Y); format: cell-based, Plasmodium falciparum
[5] = test system: P. falciparum K1; design: method as in Coertzen et al. (2018); details: resistance index; ref Coertzen et al. (2018); cited from earlier work
[6] = test system: P. falciparum W2; design: method as in Coertzen et al. (2018); details: resistance index; ref Coertzen et al. (2018); cited from earlier work
[7] = test system: P. falciparum NF54 late stage gametocytes (>90% stage IV and V); design: method as in Coertzen et al. (2018); details: ref Coertzen et al. (2018); cited from earlier work
[8] = test system: P. falciparum K1; experiment: Proliferative (SYBR Green I) assay, asexual parasites, 96 h; format: cell-based, Plasmodium falciparum; details: resistance index
Protocol: (§1) P. falciparum parasites (NF54, K1, and W2) were cultured in vitro in human erythrocytes (A^+ or O^+) under 90% N2, 5% CO2, and 5% O2 atmospheric conditions with supplemented RPMI 1640 media (Sigma Aldrich) containing Albumax II, as previously described (Verlinden et al., [2011]). This study was carried out according the guidelines set out by the Faculty of Health Sciences Ethical Committee, Ethical Clearance no. EC-120821/077. The protocol was approved by the Faculty of Health sciences ethical committee at the University of Pretoria. All subjects gave written informed consent in accordance with the Declaration of Helsinki. Parasite proliferation was monitored microscopically using Giemsa stained smears. Synchronized ring stage parasites (>95%) were obtained using a 5% D-sorbitol (Sigma Aldrich) treatment. […] Gametocyte cultures were kept stationary under 90% N2, 5% CO2, and 5% O2 atmospheric conditions at 37°C and treated with 50 mM N-acetyl-glucosamine (NAG) to eliminate residual invasion of asexual parasites.
(§2) Working solutions of the derivatives were prepared from a 10 mM stock solution in 100% DMSO in supplemented RPMI 1640 media containing Albumax II with a final DMSO concentration of <0.1%, previously determined as being non-toxic to intraerythrocytic asexual parasites and gametocytes. Dose responses were assayed using a two-fold serial drug dilution on in vitro >95% ring stage intraerythrocytic P. falciparum parasites at 37°C under 90% N2, 5% CO2, and 5% O2 atmospheric conditions, detecting both parasite lactate dehydrogenase (pLDH) activity as a metabolic marker following a 48 h drug exposure (1.5–2% parasitemia and 2% hematocrit; Makler et al., [1993]) and SYBR Green I fluorescence as proliferative marker following a 96 h drug exposure (1% parasitemia and 1% hematocrit). […] Data analysis was performed using GraphPad Prism 7.

[9] = test system: P. falciparum W2; experiment: as above; format: cell-based, Plasmodium falciparum; details: resistance index
Protocol: as §1, §2

[10] = test system: P. falciparum NF54 late stage gametocytes (>90% stage IV and V); experiment: Gametocytocidal luciferase reporter assay, late stage, 72 h; format: cell-based, Plasmodium falciparum
Protocol: as §1
Gametocytocidal activity was determined using the luciferase reporter line (Reader et al., [2015]) to derive dose responses with two-fold serial drug dilutions for 48 h against early stage gametocytes (day 5 post-induction population, >90% stage I–III) and 10-fold serial drug dilutions for 72 h against late stage gametocytes (day 10 post-induction population, >90% late stage IV–V) (2% gametocytemia, 2% hematocrit), at 37°C under 90% N2, 5% CO2, and 5% O2 atmospheric conditions.

[11] = test system: P. falciparum Dd2; experiment: Metabolic (parasite LDH) assay, asexual ring stage parasites, 48 h; format: cell-based, Plasmodium falciparum; details: resistance index
Protocol: as §2

[12] = test system: HepG2 cells; experiment: HepG2 cytotoxicity bioluminescence assay (CellTiterGlo, ATP); format: cell-based, human; details: selectivity index
Protocol: Briefly, HepG2-CD81 cells were seeded into 1,536 well plates containing 50 nL of test and control compounds diluted into DMSO. […] Next, 2 μL of luciferin reagent (Promega BrightGlo) was added to each well and luciferase activity was detected using a Perkin Elmer Envision plate reader. […] In parallel, plates were processed without sporozoites for HepG2 toxicity measurements.
In continuation of the transmission blocking theme, it is important to establish activities against liver stage parasites. […] This assay uses ultra-high-throughput screening methods optimized for a 1536-well format and a HepG2 human hepatoma cell line. […] To establish selectivity of the compounds for the parasite in the liver stage of infection, cytotoxicity was determined by measuring bioluminescence from the reaction between free ATP of compound-treated, uninfected hepatocytes and a luciferase reporter system.

| Structure (SMILES) | RI (IC50 for PL08-09 (5C)/IC50 for W2) [1] | fold decrease in susceptibility of PL08-009 (5C) ([1]; relative to W2) | SI (EC50 CHO/IC50 NF54 proliferative assay) [2] | RI (IC50 Dd2/IC50 NF54), metabolic [3] | RI (IC50 for ARC08-22(4G)/IC50 for W2) [4] | RI (IC50 K1/IC50 NF54), proliferative [5] | RI (column beside W2; footnote f IC50 Dd2/IC50 NF54), proliferative [6] | Fold change preference ratio: EG to LG [7] | Fold change preference ratio: LG to EG [7] | RI (IC50 K1/IC50 NF54), proliferative [8] | RI (column beside W2; footnote f IC50 Dd2/IC50 NF54), proliferative [9] | Fold change preference ratio: EG to LG [10] | RI (IC50 Dd2/IC50 NF54), metabolic [11] | Fold change preference ratio: LG to EG [10] | SI (EC50 HepG2/IC50 P. berghei sporozoites) [12] |
| --- | --- | --- | --- | --- | --- | --- | --- | --- | --- | --- | --- | --- | --- | --- | --- |
| CC1CCC2C(C)C(N3CCN(C(=O)Nc4ccccc4)CC3)OC3OC4(C)CCC1C32OO4 (stereo not shown) [Phenylurea 10] | 39.3 | > 20 fold | 1,846 | 5.8 | 1.6 | 0.61 | 0.36 | 0.02 | 48.8 | – | – | – | – | – | – |
| C[C@H]1[C@H](N2CCN(C(=O)Nc3ccc(C(C)(C)C)cc3)CC2)O[C@@H]2O[C@@]3(C)CC[C@H]4[C@H](C)CC[C@@H]1[C@@]24OO3 [Compound 22] | – | – | – | – | – | – | – | – | – | 0.6 | 0.8 | 0.39 | 11.7 | – | – |
| CN(C)c1ccc2nc3ccc(=[N+](C)C)cc-3sc2c1 [MB, methylene blue] | – | – | – | 43.3 | – | – | – | – | – | – | – | – | – | – | – |
| C[C@H]1[C@H](NS(=O)(=O)N2CCN(c3ccc(C(F)(F)F)cn3)CC2)O[C@@H]2O[C@@]3(C)CC[C@H]4[C@H](C)CC[C@@H]1[C@@]24OO3 [Compound 30] | – | – | – | – | – | – | – | – | – | 1.3 | 0.9 | 0.21 | 5.4 | 4.77 | – |
| CC1CCC2C(C)C(Nc3ccc(F)cc3)OC3OC4(C)CCC1C32OO4 (stereo not shown) [Arylamine 12] | 3.3 | – | 371 | 1.41 | 1.2 | 0.48 | 2.55 | 0.4 | 2.3 | – | – | – | – | – | – |
| C[C@H]1[C@@H](O)O[C@@H]2O[C@@]3(C)CC[C@H]4[C@H](C)CC[C@@H]1[C@@]24OO3 [DHA 2, dihydroartemisinin] | 1.4 | – | 10,039 | 7.1 | 1.5 | 0.6 | 0.7 | 0.78 | 1.3 | – | – | – | – | – | – |
| C[C@H]1[C@H](N2CCN(S(=O)(=O)c3ccc(C(F)(F)F)cc3)CC2)O[C@@H]2O[C@@]3(C)CC[C@H]4[C@H](C)CC[C@@H]1[C@@]24OO3 [Compound 18] | – | – | – | – | – | – | – | – | – | 1.6 | 1.7 | 0.05 | 4.9 | 18.60 | – |
| C[C@H]1[C@H](N2CCN(S(=O)(=O)c3cccc(F)c3)CC2)O[C@@H]2O[C@@]3(C)CC[C@H]4[C@H](C)CC[C@@H]1[C@@]24OO3 [Compound 17] | – | – | – | – | – | – | – | – | – | 1.6 | 1.5 | 0.05 | 3.1 | 20.98 | – |
| CC1CCC2C(C)C(N3CCNCC3)OC3OC4(C)CCC1C32OO4 (stereo not shown) [DHA-piperazine 9] | – | – | – | 0.5 | – | 0.61 | 0.45 | – | – | – | – | – | – | – | – |
| CCCCS(=O)(=O)N1CCN([C@@H]2O[C@@H]3O[C@@]4(C)CC[C@H]5[C@H](C)CC[C@@H]([C@H]2C)[C@@]35OO4)CC1 [Compound 13] | – | – | – | – | – | – | – | – | – | 1.1 | 1.6 | 0.02 | – | 40.55 | – |
| CCN(CC)CCCC(C)Nc1ccnc2cc(Cl)ccc12 (stereo not shown) [CQ, chloroquine] | – | – | – | 25.1 | – | 15.4 | – | – | – | – | – | – | – | – | – |
| C[C@H]1[C@H](N2CCN(C(=O)Nc3ccc(F)cc3)CC2)O[C@@H]2O[C@@]3(C)CC[C@H]4[C@H](C)CC[C@@H]1[C@@]24OO3 [Compound 24] | – | – | – | – | – | – | – | – | – | 0.65 | 0.9 | 0.47 | 7.6 | – | – |
| CC(=O)Nc1ccc(S(=O)(=O)N2CCN([C@@H]3O[C@@H]4O[C@@]5(C)CC[C@H]6[C@H](C)CC[C@@H]([C@H]3C)[C@@]46OO5)CC2)cc1 [Compound 15] | – | – | – | – | – | – | – | – | – | 1.3 | 2.0 | 0.11 | 1.8 | 8.78 | – |
| C[C@H]1[C@H](N2CCN(S(=O)(=O)c3ccc(F)cc3)CC2)O[C@@H]2O[C@@]3(C)CC[C@H]4[C@H](C)CC[C@@H]1[C@@]24OO3 [Compound 19] | – | – | – | – | – | – | – | – | – | 1.2 | 1.4 | 0.06 | 5.9 | 16.28 | – |
| C[C@H]1[C@H](N2CCN(C(=O)Nc3ccc(C(F)(F)F)cc3)CC2)O[C@@H]2O[C@@]3(C)CC[C@H]4[C@H](C)CC[C@@H]1[C@@]24OO3 [Compound 23] | – | – | – | – | – | – | – | – | – | 0.7 | 0.9 | 0.05 | 6.7 | 19.48 | – |
| C[C@H]1[C@H](NS(=O)(=O)N2CCN(c3ccccn3)CC2)O[C@@H]2O[C@@]3(C)CC[C@H]4[C@H](C)CC[C@@H]1[C@@]24OO3 [Compound 29] | – | – | – | – | – | – | – | – | – | 1.1 | 0.8 | 0.00 | 3.8 | 578.76 | – |
| C[C@H]1[C@H](N2CCN(S(=O)(=O)c3cccc(C(F)(F)F)c3)CC2)O[C@@H]2O[C@@]3(C)CC[C@H]4[C@H](C)CC[C@@H]1[C@@]24OO3 [Compound 16] | – | – | – | – | – | – | – | – | – | 1.5 | 1.4 | 0.02 | 5.7 | 46.26 | – |
| C[C@H]1[C@H](N2CCSCC2)O[C@@H]2O[C@@]3(C)CC[C@H]4[C@H](C)CC[C@@H]1[C@@]24OO3 [Artemiside 7, artemiside] | 0.1 | – | >45,166 | 1.4 | 1.1 | 1.47 | 1.58 | 0.09 | 10.9 | – | – | – | – | – | >308 |
| CC1CCC2C(C)C(NS(N)(=O)=O)OC3OC4(C)CCC1C32OO4 (stereo not shown) [Sulfamide 11] | 0.4 | – | 51,376 | 1.55 | 1.0 | 0.56 | 0.64 | 28.0 | 0.04 | – | – | – | – | – | – |
